Data on 65 compounds can be found in PubChem BioAssay AID493014 (National Center for Advancing Translational Sciences (NCATS), 2011).

This assay can be described thus: qHTS Assay to Find Inhibitors of Chronic Active B-Cell Receptor Signaling. The following applies: ABC-DLBCL IkBa-CBG/CBR reporter, luminescence ratio (green luciferase fused to IkBa over red control in TMD8 lymphoma cells), 4 h. The essentials: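 TMD8 human ABC-DLBCL cells with doxycycline-inducible IκBα–green luciferase fusion and unfused red luciferase, in 0.5% FBS medium; compounds up to 46 uM, 4 h at 37C. Green/red luminescence ratio, filter-overlap corrected, fitted to concentration-response curves.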
Background: qHTS replaces the single test concentration by a dilution series.

Where [1] appears, read: measured here: CBR red luminescence, cell number.
Setting [2] is: measured here: IkBa-CBG green luminescence.

Each structure is given as a SMILES string. This is one part of the list. The main result of the screen is listed elsewhere. These columns were measured beside it and carry no call. Most of these compounds were active or inconclusive in the main read-out, so they are no random draw. The note in brackets gives the kind of curve behind each potency; many fits are weak.

Broadly, the AC50 is the concentration at which the activity in the assay is half-maximal. Turning to `O=C(CCCN1C(=O)S/C(=C\C=C\c2ccccc2)C1=O)Nc1ccc(C(=O)O)cc1`, the AC50 under setting [1] was 1.12 µM [falling, full curve].
As for `O=C(Cc1ccc(Cl)cc1)Nc1cccc(C(=O)Nc2ccccc2C(=O)O)c1`, under setting [1], the AC50 was 22.4 µM [falling, single point].
As to `Cc1ccc(OCC(=O)NC2CCCC(C)C2C)c([N+](=O)[O-])n1` (centres undefined), the AC50 under setting [1] is 2.31 µM [rising, full curve, poor fit].
As to `CCc1c(C)nc2[nH]nc(-c3ccccc3C)n2c1=O`, the AC50 under setting [1] is 8.2 µM [falling, partial curve].
With `COc1cc(/C=N/NC(=O)c2ccc(F)cc2)ccc1OC(=O)c1ccco1`, the AC50 under setting [1] is 25.9 µM [falling, partial curve, poor fit].
As to `O=C(Nc1ncccc1O)c1cc2ccccc2o1`, the AC50 was 4.11 µM [falling, full curve] under setting [1] and 8.2 µM [falling, partial curve, poor fit] under setting [2].
Consider `CCOC(=O)C1=C(COC(=O)/C=C/c2ccc([N+](=O)[O-])cc2)NC(=O)NC1C` (centres undefined), for which the AC50 under setting [1] is 2.59 µM [falling, single point].
On to `O=C(N/N=C/c1ccccc1Cl)c1n[nH]c2c1CCCC2`, for which the AC50 under setting [1] is 0.58 µM [falling, full curve].
On to `Fc1ccc(N=C2NN=C(c3cc(F)ccc3F)CS2)cc1`, for which the AC50 under setting [1] was 16.4 µM [falling, partial curve, poor fit].
With `C=C(C)Cn1c(SCC(=O)NCc2ccco2)nc2sc3c(c2c1=O)CCC3`, the AC50 under setting [1] is 12.6 µM [falling, single point].
Consider `CC1=C(C)CC(C(=O)NNC(=O)c2ccccc2)C(C(=O)O)C1` (centres undefined), for which, under setting [1], the AC50 was 35.5 µM [falling, single point].
In the case of `Cc1ccc(CNc2nc3ccccc3s2)s1`, the AC50 under setting [1] is 32.6 µM [falling, single point].
With `COc1cc([N+](=O)[O-])ccc1NC(=O)Nc1nc2c(s1)CCCC2`, the AC50 under setting [1] is 0.092 µM [rising, full curve, poor fit].
Regarding `O=S(=O)(NCCOc1cccc2cccnc12)c1ccc(F)cc1`, the AC50 under setting [1] was 7.31 µM [rising, partial curve].
On to `O=C(Nc1nc2cc3c(cc2s1)OCCO3)c1ccc([N+](=O)[O-])o1`, for which the AC50 under setting [1] was 2.82 µM [falling, full curve].
On to `COc1ccc(-c2cn3c(C)c(C(=O)N4CCc5ccccc5C4)sc3n2)cc1`, for which the AC50 under setting [1] was 22.4 µM [falling, single point].
The same measure, in the same setting: then `N#C/C(C(=O)c1ccccc1)=C1/SC=C(N)N1c1ccccc1`, with 10 µM [falling, partial curve, poor fit].
`CC(=O)N1CCN(C(=O)c2cccc(S(=O)(=O)Nc3ccc(C)cc3)c2)CC1`: the AC50 is 10.3 µM [falling, single point] under setting [1] and 6.51 µM [falling, partial curve, poor fit] under setting [2].
Regarding `Cc1ccc(S(=O)(=O)c2nc(S(C)(=O)=O)sc2N2CCC(O)CC2)cc1`, under setting [1], the AC50 is 35.5 µM [rising, partial curve, poor fit].
The same measure, in the same setting: then `Cc1ccc(-c2noc(-c3cc4ccccc4oc3=O)n2)cc1`, with 35.5 µM [falling, single point]; and `CCN1C(=O)/C(=C2\SC(=S)N(NC(=O)c3cccnc3)C2=O)c2ccccc21`, with 10 µM [falling, partial curve, poor fit]; and `CCN(CC)S(=O)(=O)c1ccc2c(c1)N(CC(=O)Nc1cccnc1Cl)C(=O)CO2`, with 5.62 µM [rising, full curve].
In the case of `Cc1cc(NCc2ccccc2)nc2ccccc12`, the AC50 under setting [1] is 8.2 µM [rising, partial curve].
Take `NC(=O)C1=C[C@@H](c2ccc(Br)cc2)C[C@@H](OCCCCO)O1`: the concentration at half-maximal activity (AC50) under setting [1] is 3.55 µM [rising, single point].
Take `Cc1ccc(/C=N/NC(=O)c2ccoc2C)o1`: the half-maximal activity concentration (AC50) under setting [1] was 1.64 µM [falling, partial curve, poor fit].
As for `CCc1cc(C(=O)N/N=C/c2ccc(O)cc2O)c2ccccc2n1`, the AC50 under setting [1] is 10 µM [falling, single point].
Consider `O=c1oc(Nc2cccc(Cl)c2)nc2ccccc12`, for which, under setting [1], the concentration at half-maximal activity (AC50) is 3.16 µM [falling, full curve].
Consider `CCOc1ccc(NC(=O)N2CCC(n3nnc4cc(C)ccc43)CC2)cc1`, for which the half-maximal activity concentration (AC50) under setting [1] was 8.2 µM [rising, partial curve].
On to `CCC(CC)C(=O)Nc1ccc(C)cc1O`, for which the AC50 under setting [1] is 6.31 µM [rising, partial curve, poor fit].
Same read-out and setting: the value for `CS(=O)(=O)c1cccc(-c2csc(N3CCC(C(N)=O)CC3)n2)c1` was 4.61 µM [rising, full curve, poor fit].
Consider `O=C(CCc1ccccc1O)N/N=C/c1ccc(Sc2cccc3cccnc23)o1`, for which, under setting [1], the AC50 is 29.1 µM [falling, single point].
Take `O=C(O)C1CC(=O)N(c2ccc(OCc3c(F)cccc3Cl)cc2)C1` (centres undefined): the AC50 under setting [1] was 5.17 µM [falling, partial curve, poor fit].
Same read-out and setting: the value for `CCc1[nH]c(=S)c(C#N)c2c1CCCC2` was 5.8 µM [rising, full curve, poor fit]; that for `COc1ccc(OC(=O)c2ccc(Cl)cc2)c(C(C)=O)c1` was 4.47 µM [rising, partial curve].
Take `O=C(NCc1ccc(-n2cccc2)cc1)c1cccc(F)c1`: the AC50 under setting [1] was 12.6 µM [rising, partial curve, poor fit].
The same measure, in the same setting: the value for `Oc1ccc2ccccc2c1C=Nc1ccccc1-c1nc2ccccc2[nH]1` was 29.1 µM [falling, single point]; that for `CC1Cc2ccccc2N1C(=O)c1cnc2n(c1=O)CCS2` (centres undefined) was 13 µM [falling, partial curve]; that for `COc1cccc(NC(=O)Nc2nnc(CC(=O)NCc3ccccc3)s2)c1` was 25.1 µM [falling, single point].
For `Cc1c(C(=O)N2CCCCC2)oc2ccc(S(=O)(=O)N3CC(C)CC(C)C3)cc12` (centres undefined), the AC50 under setting [1] is 0.891 µM [falling, full curve].
For the compound `CCNc1c(N)c(=O)oc2ccccc12`, the AC50 under setting [1] is 5.01 µM [falling, partial curve].
As to `Cc1cc(NC(=O)COC(=O)c2cccc(O)c2)no1`, under setting [1], the AC50 was 35.5 µM [falling, single point].
On the same count and under the same terms, then `COCc1cc(C)nc2sc3c(=O)n(-c4ccccc4C(F)(F)F)nnc3c12`, with 5.01 µM [rising, full curve, poor fit]; and `CC(=O)Nc1ccc2nc(NC(=O)CS(=O)(=O)c3ccc(C)cc3)sc2c1`, with 14.1 µM [falling, single point].
For the compound `CC(=O)Nc1ccc(/C=C/C(=O)c2ccccc2)cc1`, the AC50 by setting is: under setting [1], 17.8 µM [falling, single point]; under setting [2], 35.5 µM [rising, partial curve, poor fit].
With `CSc1nsc(SCC(=O)Nc2ccc(OC(C)=O)cc2)n1`, the AC50 under setting [1] was 7.08 µM [rising, partial curve, poor fit].
Regarding `Cc1cc(Cl)c2oc(C(=O)N(C)CCc3cnn(C)c3)c(C)c2c1`, the AC50 under setting [1] is 17.8 µM [rising, partial curve].
Same read-out and setting: the value for `CCOc1ccc(C(Nc2cccnc2)c2cc(Cl)c3cccnc3c2O)cc1` (centres undefined) was 10 µM [falling, partial curve, poor fit].
Regarding `CC(C)C1=NN(C(=O)c2ccccc2)C(O)(C(C)(C)C)C1` (centres undefined), under setting [1], the AC50 was 5.01 µM [falling, partial curve].
As for `CCOC(=O)c1ccc(CS(=O)c2ccc(Cl)cc2)o1` (centres undefined), the AC50 under setting [1] was 6.31 µM [falling, partial curve].
Regarding `COc1ccc(/C=C/C(=O)Oc2cc(O)cc(O)c2)cc1`, the AC50 under setting [1] was 7.94 µM [rising, partial curve].
As to `Cc1ccc(OCCNC(=O)c2cc(C3CC3)nc3c2cnn3C(C)C)cc1`, the AC50 under setting [1] is 0.164 µM [rising, full curve, poor fit].
With `O=C(Nc1ccc([N+](=O)[O-])cc1)C(=O)Nc1cccc(C(=O)O)c1`, the AC50 under setting [1] is 0.316 µM [falling, full curve, poor fit].
Same read-out and setting: then `Cc1ccc(O)c(NC(=O)c2cc(-c3ccccc3)on2)c1`, with 2.51 µM [falling, full curve]; and `O=C(CN1CCN(c2ccccc2)CC1)Nc1ccc(-n2cnnn2)cc1`, with 29.1 µM [falling, single point]; and `O=C(Nc1ccccc1)Nc1cccc(NC(=O)Nc2ccccc2)c1F`, with 7.08 µM [falling, partial curve, poor fit].
With `N#Cc1cccc(NC(=O)CNC(=O)Cc2ccccc2)c1`, the AC50 under setting [1] is 3.98 µM [falling, partial curve, poor fit].
`COc1ccc(-c2nc(C#N)c(NC(C)c3ccccc3)o2)cc1OC` (centres undefined): the AC50 by setting is: under setting [1], 1.84 µM [rising, partial curve]; under setting [2], 1.64 µM [falling, partial curve, poor fit].
For the compound `O=C(NN=C1CCCC1)c1cccs1`, the half-maximal activity concentration (AC50) under setting [1] is 7.31 µM [falling, partial curve].
Turning to `Cc1ccc(N=Nc2ccc(N)cc2C)c(S(N)(=O)=O)c1`, the AC50 under setting [1] was 3.98 µM [rising, full curve, poor fit].
As for `O=C(NCCc1ccc(C(F)(F)F)cc1)C1CCC(=O)N(CCCc2ccccc2)C1` (centres undefined), the AC50 under setting [1] was 35.5 µM [falling, single point].
On to `COc1cccc(CNn2cnnc2)c1OCc1ccccc1F`, for which the AC50 under setting [1] was 6.51 µM [falling, partial curve, poor fit].
Same read-out and setting: then `COc1ccc(N2C(=O)CC(NC3CC3)C2=O)cc1` (centres undefined), with 29.1 µM [rising, single point].
Same read-out and setting: then `Cn1c(N)c(C(=O)c2cc(-c3ccccn3)nc3ccccc23)c(=O)[nH]c1=O`, with 35.5 µM [rising, single point].
On the same count and under the same terms, then `O=C(Nc1cccc(Cl)c1)N1CCSc2cc(Cl)ccc21`, with 6.31 µM [rising, partial curve, poor fit].
Consider `c1ccc(CCc2nc3ccccc3[nH]2)cc1`, for which the AC50 under setting [1] is 0.708 µM [rising, partial curve, poor fit].
